Reference: the supplement of paper PMC8728848
Some of the results follow.

Experiments:
Test in all cases: glycan array binding signal (z-score within array); higher = stronger binding
Settings in all cases: glycan notation: IUPAC condensed, linker removed
GalNAc(b1-3)Gal = target: GalNAc(b1-3)Gal
How it was run: (§1)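 The binding signal is a Z-score computed within each array and averaged over linkers. Arrays of the same protein sequence at different concentrations or buffers were also averaged together. Data originate from 3228 arrays in the Consortium for Functional Glycomics database, kept only where the protein sequence was available.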

[1] = target: GalNAc(b1-3)Gal(a1-4)Gal(b1-4)GlcNAc
How it was run: as §1

[2] = target: GalNAc(b1-3)Gal(a1-4)Gal(b1-4)GlcNAc(b1-3)Gal(b1-4)Glc
How it was run: as §1

[3] = target: GalNAc(b1-3)Gal(a1-6)Gal(b1-4)Glc
How it was run: as §1

GalNAc(b1-3)GalNAc = target: GalNAc(b1-3)GalNAc
How it was run: as §1

GalNAc(b1-3)GlcNAc = target: GalNAc(b1-3)GlcNAc
How it was run: as §1

GalNAc(b1-4)Gal(b1-4)Glc = target: GalNAc(b1-4)Gal(b1-4)Glc
How it was run: as §1

GalNAc(b1-4)GlcNAc = target: GalNAc(b1-4)GlcNAc
How it was run: as §1

[4] = target: GalNAc(b1-4)GlcNAc(b1-2)Man
How it was run: as §1

[5] = target: GalNAc(b1-4)GlcNAc(b1-2)Man(a1-3)[GalNAc(b1-4)GlcNAc(b1-2)Man(a1-6)]Man(b1-4)GlcNAc(b1-4)GlcNAc
How it was run: as §1

[6] = target: GalNAc(b1-4)GlcNAc(b1-3)GalNAc(b1-4)GlcNAc
How it was run: as §1

GalNAc(b1-4)GlcNAc6S = target: GalNAc(b1-4)GlcNAc6S
How it was run: as §1

GalNAc(b1-6)GalNAc = target: GalNAc(b1-6)GalNAc
How it was run: as §1

GalNAc3S(b1-4)GlcNAc = target: GalNAc3S(b1-4)GlcNAc
How it was run: as §1

GalNAc3S(b1-4)GlcNAc3S = target: GalNAc3S(b1-4)GlcNAc3S
How it was run: as §1

[7] = target: GalNAc3S(b1-4)[Fuc(a1-3)]GlcNAc
How it was run: as §1

GalNAc4S6S(b1-4)GlcNAc = target: GalNAc4S6S(b1-4)GlcNAc
How it was run: as §1

GalNAc6S(b1-4)GlcNAc = target: GalNAc6S(b1-4)GlcNAc
How it was run: as §1

Glc(a1-4)Glc = target: Glc(a1-4)Glc
How it was run: as §1

[8] = target: Glc(a1-4)Glc(a1-4)Glc(a1-4)Glc
How it was run: as §1

Glc(a1-6)Glc(a1-6)Glc = target: Glc(a1-6)Glc(a1-6)Glc
How it was run: as §1

[9] = target: Glc(a1-6)Glc(a1-6)Glc(a1-6)Glc
How it was run: as §1

Glc(b1-4)Glc = target: Glc(b1-4)Glc
How it was run: as §1

Glc(b1-6)Glc = target: Glc(b1-6)Glc
How it was run: as §1

GlcA(b1-3)Gal = target: GlcA(b1-3)Gal
How it was run: as §1

GlcA(b1-3)GlcNAc = target: GlcA(b1-3)GlcNAc
How it was run: as §1

GlcA(b1-6)Gal = target: GlcA(b1-6)Gal
How it was run: as §1

[10] = target: GlcA3S(b1-3)Gal(b1-4)GlcNAc(b1-2)Man
How it was run: as §1

[11] = target: GlcA3S(b1-3)Gal(b1-4)GlcNAc(b1-3)Gal(b1-4)Glc
How it was run: as §1

[12] = target: GlcNAc(a1-3)Gal(b1-4)GlcNAc
How it was run: as §1

[13] = target: GlcNAc(a1-4)Gal(b1-3)GlcNAc
How it was run: as §1

[14] = target: GlcNAc(a1-4)Gal(b1-4)GalNAc
How it was run: as §1

[15] = target: GlcNAc(a1-4)Gal(b1-4)GlcNAc
How it was run: as §1

[16] = target: GlcNAc(a1-4)Gal(b1-4)GlcNAc(b1-3)Gal(b1-4)Glc
How it was run: as §1

[17] = target: GlcNAc(a1-4)Gal(b1-4)GlcNAc(b1-3)Gal(b1-4)GlcNAc
How it was run: as §1

[18] = target: GlcNAc(a1-4)Gal(b1-4)GlcNAc(b1-3)Gal(b1-4)GlcNAc(b1-3)Gal(b1-4)GlcNAc
How it was run: as §1

[19] = target: GlcNAc(a1-4)Gal(b1-4)GlcNAc(b1-3)Gal(b1-4)[Fuc(a1-3)]GlcNAc(b1-3)Gal(b1-4)[Fuc(a1-3)]GlcNAc
How it was run: as §1

[20] = target: GlcNAc(a1-6)Gal(b1-4)GlcNAc
How it was run: as §1

B1: Aap lectin (Staphylococcus epidermidis) (protein)
chain: VNLNYSSPFMSLLSMPADSSSNNTKNTIDIPPTTVKGRDNYDFYGRVDIESNPTDLNATNLTRYNYGQPPGTTTAGAVQFKNQVSFDKDFDFNIRVANNRQSNTTGADGWGFMFSKKDGDDFLKNGGILREKGTPSAAGFRIDTGYYNNDPLDKIQKQAGQGYRGYGTFVKNDSQGNTSKVGSGTPSTDFLNYADNTTNDLDGKFHGQKLNNVNLKYNASNQTFTATYAGKTWTATLSELGLSPTDSYNFLVTSS
**Q.** How did the “glycan array binding signal (z-score)” value (GalNAc(b1-3)Gal) turn out when B1 was run?
**A.** 0.081

**Q.** And the “glycan array binding signal (z-score)” value [1]?
**A.** 1.74

**Q.** And the “glycan array binding signal (z-score)” value [2]?
**A.** -0.753

**Q.** And the “glycan array binding signal (z-score)” value [3]?
**A.** 0.898

**Q.** What about the “glycan array binding signal (z-score)” value (GalNAc(b1-3)GalNAc) of the same binder?
**A.** -0.41

**Q.** What about the “glycan array binding signal (z-score)” value (GalNAc(b1-3)GlcNAc) of the same binder?
**A.** -0.351

**Q.** And the “glycan array binding signal (z-score)” value (GalNAc(b1-4)Gal(b1-4)Glc)?
**A.** -0.556

**Q.** And the “glycan array binding signal (z-score)” value (GalNAc(b1-4)GlcNAc)?
**A.** -0.776

**Q.** And the “glycan array binding signal (z-score)” value [4]?
**A.** -0.244

**Q.** What about the “glycan array binding signal (z-score)” value [5] of the same binder?
**A.** 3.29

**Q.** And the “glycan array binding signal (z-score)” value [6]?
**A.** -0.634

**Q.** And the “glycan array binding signal (z-score)” value (GalNAc(b1-4)GlcNAc6S)?
**A.** -0.012

**Q.** And the “glycan array binding signal (z-score)” value (GalNAc(b1-6)GalNAc)?
**A.** -0.898

**Q.** What about the “glycan array binding signal (z-score)” value (GalNAc3S(b1-4)GlcNAc) of the same binder?
**A.** -0.889

**Q.** What about the “glycan array binding signal (z-score)” value (GalNAc3S(b1-4)GlcNAc3S) of the same binder?
**A.** 0.576

**Q.** And the “glycan array binding signal (z-score)” value [7]?
**A.** 0.202

**Q.** What about the “glycan array binding signal (z-score)” value (GalNAc4S6S(b1-4)GlcNAc) of the same binder?
**A.** -0.78

**Q.** And the “glycan array binding signal (z-score)” value (GalNAc6S(b1-4)GlcNAc)?
**A.** -0.855

**Q.** And the “glycan array binding signal (z-score)” value (Glc(a1-4)Glc)?
**A.** 0.319

**Q.** What about the “glycan array binding signal (z-score)” value [8] of the same binder?
**A.** -0.004

**Q.** And the “glycan array binding signal (z-score)” value (Glc(a1-6)Glc(a1-6)Glc)?
**A.** -0.88

**Q.** And the “glycan array binding signal (z-score)” value [9]?
**A.** -0.508

**Q.** What about the “glycan array binding signal (z-score)” value (Glc(b1-4)Glc) of the same binder?
**A.** -0.446

**Q.** And the “glycan array binding signal (z-score)” value (Glc(b1-6)Glc)?
**A.** -0.787

**Q.** What about the “glycan array binding signal (z-score)” value (GlcA(b1-3)Gal) of the same binder?
**A.** 0.27

**Q.** And the “glycan array binding signal (z-score)” value (GlcA(b1-3)GlcNAc)?
**A.** 0.647

**Q.** What about the “glycan array binding signal (z-score)” value (GlcA(b1-6)Gal) of the same binder?
**A.** 1.04

**Q.** And the “glycan array binding signal (z-score)” value [10]?
**A.** -0.428

**Q.** And the “glycan array binding signal (z-score)” value [11]?
**A.** -0.088

**Q.** And the “glycan array binding signal (z-score)” value [12]?
**A.** -0.453

**Q.** And the “glycan array binding signal (z-score)” value [13]?
**A.** 0.32

**Q.** And the “glycan array binding signal (z-score)” value [14]?
**A.** 0.605

**Q.** And the “glycan array binding signal (z-score)” value [15]?
**A.** 2.69

**Q.** And the “glycan array binding signal (z-score)” value [16]?
**A.** -0.548

**Q.** What about the “glycan array binding signal (z-score)” value [17] of the same binder?
**A.** 0.14

**Q.** And the “glycan array binding signal (z-score)” value [18]?
**A.** -0.091

**Q.** And the “glycan array binding signal (z-score)” value [19]?
**A.** 0.862

**Q.** And the “glycan array binding signal (z-score)” value [20]?
**A.** 0.245
